Some of the results follow. This data set is noisy: repeats of one test often differ as much as different tests do.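 HEK293T cells were given each compound shortly before transfection with a reporter in which red mCherry is followed by the SARS-CoV-2 frameshift element and then GFP in the −1 frame, so GFP appears only after frameshifting.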
Test system: HEK293T
Experiment: percent viability (nuclei count) relative to control; higher = more viable cells
Settings: 10 µM; 24 h

Compound | percent viability [%]
CN1CCN(C2=Nc3ccccc3Oc3ccc(Cl)cc32)CC1 [loxapine] | 231
O=C(O[C@@H]1C[C@@H]2C[C@H]3C[C@H](C1)N2CC3=O)c1c[nH]c2ccccc12 [Dolasetron] | 282
c1ccc2[nH]c(-c3cscn3)nc2c1 [tiabendazole] | 166
O=C(O)Cc1cn(-c2ccccc2)nc1-c1ccc(Cl)cc1 [lonazolac] | 143
CC(C(=O)O)c1ccc(-c2cn3ccccc3n2)cc1 (stereo not drawn) [miroprofen] | 122
CCOC(=O)O[C@]1(C(=O)COC(=O)CC)CC[C@H]2[C@@H]3CCC4=CC(=O)C=C[C@]4(C)[C@H]3[C@@H](O)C[C@@]21C [prednicarbate] | 194
COc1cc2[nH]c(C)c(CCN3CCN(c4ccccc4)CC3)c2cc1OC [oxypertine] | 179
CC(=O)Nc1cccc(O)c1 [metacetamol] | 27
Nc1nc2c(c(=O)[nH]1)N(C=O)C(CNc1ccc(C(=O)N[C@@H](CCC(=O)O)C(=O)O)cc1)CN2 (stereo partly drawn) | 125
c1ccc(C(O[C@@H]2CCCN(CCc3ccc4c(c3)OCO4)C2)c2ccccc2)cc1 [zamifenacin] | 148
CC(=O)[C@H]1CC[C@H]2[C@@H]3C=CC4=CC(=O)CC[C@@]4(C)[C@@H]3CC[C@]12C [dydrogesterone] | 135
O=C1O[C@H]([C@@H](O)CO)C(O)=C1O [ascorbic acid] | 146
C[C@H]1[C@H](OC(=O)CCC(=O)O)O[C@@H]2O[C@@]3(C)CC[C@H]4[C@H](C)CC[C@@H]1[C@@]24OO3 | 21.3

Source: the supplement of paper PMC8256030
